Consider 41 molecules from the supplement of paper PMC11060735.

Structures are written as SMILES. Counter-ions that a name gives are not always drawn. ± gives the standard deviation of the averaged measurements. In all, about 1,800 compounds were measured (“GFP- (p16Ink4a-) cell count relative to negative-control wells”: median about 0.99, lowest 2% from about 0.5 on). Some of the results follow.

For this assay, the system named is mouse p16Ink4a+/- lung fibroblasts (INKBRITE, bleomycin-injured). In words: GFP- (p16Ink4a-) cell count relative to negative-control wells (fold of vehicle); higher = more p16Ink4a- cells surviving. Conditions: 1 µM; 3 days.
On to `O=C(N[C@H](CO)[C@H](O)c1ccc([N+](=O)[O-])cc1)C(Cl)Cl` [Chloramphenicol], for which the GFP- is 0.717.

Molecule `CCNC(=O)c1[nH]nc(-c2cc(Cl)c(O)cc2O)c1-c1ccc(OC)cc1` gave a GFP- of 0.89.

For the molecule `NC1(Cc2ccc(Cl)cc2)CCN(c2ncnc3[nH]ccc23)CC1`, the GFP- was 0.822.

With `CCOC(=O)O[C@]1(C(=O)OCCl)CC[C@H]2[C@@H]3CCC4=CC(=O)C=C[C@]4(C)[C@H]3[C@@H](O)C[C@@]21C` [Loteprednol etabonate], the GFP- was found to be 1.03.

`CCN(C(=O)c1c(O)c2c(Cl)cccc2n(C)c1=O)c1ccccc1` [Laquinimod]: the GFP- was 1.13.

In turn, `CC(C)/N=c1\cc2n(-c3ccc(Cl)cc3)c3ccccc3[nH]c-2c\c1=N/c1ccc(Cl)cc1` [Clofazimine] gave a GFP- of 1.08.

Take `Cc1cc(C)nc(NS(=O)(=O)c2ccc(NC(=S)NC(=O)COc3ccc(Br)cc3Cl)cc2)n1`: the GFP- came to 1.01.

Turning to `CN(C)C1CCN(C(=O)c2ccc(NC(=O)Nc3ccc(-c4nc(N5CCOCC5)nc(N5CCOCC5)n4)cc3)cc2)CC1`, the GFP- turned out to be 0.796.

With `Clc1ccc(C(Cn2ccnc2)OCc2csc3c(Cl)cccc23)c(Cl)c1` (stereo unspecified) [Sertaconazole], the GFP- is 1.05.

With `CC(C)C[C@H](NC(=O)[C@H](Cc1ccccc1)NC(=O)c1cnccn1)B(O)O` [Bortezomib], the GFP- was 0.294.

`N#CCNC(=O)c1ccc(-c2ccnc(Nc3ccc(N4CCOCC4)cc3)n2)cc1`: the GFP- was 0.811 ± 0.046.

In turn, `Cc1ccc2c(=O)c3cccc(CC(=O)O)c3oc2c1C` [Vadimezan] registered a GFP- of 0.99.

For `CC12CC3CC(C)(C1)CC(N)(C3)C2` [Memantine], the GFP- was 0.978.

`Cc1cc(-c2ccc(CC(=O)Nc3ccc(-c4cccnc4)cc3)cc2)ccn1`: the GFP- was 1.04.

Regarding `CC(=O)N1CCN(c2ccc(OC[C@H]3CO[C@](Cn4ccnc4)(c4ccc(Cl)cc4Cl)O3)cc2)CC1` [Ketoconazole], the GFP- was found to be 1.15.

The molecule `O=c1oc2cc(O)ccc2s1` [Thioxolone, Tioxolone] yielded a GFP- of 1.01.

In turn, `CC(C)[C@H](O)C(=O)N[C@@H](C)C(=O)N[C@@H]1C(=O)N(C)CCc2ccccc21` [Semagacestat] yielded a GFP- of 1.01.

For `CC(C)(C)CC(C)(C)c1ccc(OCCOCC[N+](C)(C)Cc2ccccc2)cc1` [Benzethonium Chloride], the GFP- was determined as 1.01.

Take `COc1c(C)cnc(Cn2cnc3c(Cl)nc(N)nc32)c1C`: the GFP- stood at 0.671.

`CC(C)OC(=O)OCOP(=O)(CO[C@H](C)Cn1cnc2c(N)ncnc21)OCOC(=O)OC(C)C` [Tenofovir Disoproxil]: the GFP- worked out at 1.1.

`COc1ccc(CCC(=O)Nc2nc3ccc(Cl)cc3s2)cc1OC` displayed a GFP- of 0.946.

Regarding `N=C(N)Nc1nc(CSCCC(=N)NS(N)(=O)=O)cs1` [Famotidine], the GFP- was determined as 1.11.

With `CC(C)(C)NC(=O)[C@H]1CC[C@H]2[C@@H]3CC[C@H]4NC(=O)C=C[C@]4(C)[C@H]3CC[C@]12C` [Finasteride], the GFP- came out at 1.04.

`CCc1cc(Nc2nccc(-c3c(-c4ccc(OC)c(C(=O)Nc5c(F)cccc5F)c4)nc4ccccn34)n2)c(OC)cc1N1CCC(N2CCN(S(C)(=O)=O)CC2)CC1`: the GFP- is 1.03.

`CN(CCOc1ccc(CC2SC(=O)NC2=O)cc1)c1ccccn1` (stereo unspecified) [Rosiglitazone, Rosiglitazone Maleate] showed a GFP- of 0.942.

For `Cc1cc2c(cc1CC(=O)c1sccc1S(=O)(=O)Nc1onc(C)c1Cl)OCO2` [Sitaxentan], the GFP- is 0.724.

For `CCCCC1C(=O)N(c2ccccc2)N(c2ccccc2)C1=O` [Phenylbutazone], the GFP- stood at 1.13.

Regarding `CC(=O)OCC(=O)[C@@]1(O)CC[C@H]2[C@@H]3CCC4=CC(=O)CC[C@]4(C)[C@H]3C(=O)C[C@@]21C` [Cortisone acetate], the GFP- was 0.809.

The molecule `CCN1CCN(c2cc3c(cc2F)c(=O)c(C(=O)O)cn3C2CC2)CC1` [Enrofloxacin] gave a GFP- of 1.14.

With `Cc1ccc(C(=O)Cn2c3c(sc2=N)CCCC3)cc1` [Pifithrin], the GFP- came to 1.03.

Regarding `Cc1c(Nc2ncccc2C(=O)O)cccc1C(F)(F)F` [Flunixin Meglumine], the GFP- turned out to be 0.939.

The molecule `O=c1cc(N2CCOCC2)oc2c(-c3ccccc3)cccc12` gave a GFP- of 0.978.

The molecule `Nc1c(CC(=O)O)cccc1C(=O)c1ccccc1` [Amfenac Sodium Monohydrate] came in with a GFP- of 0.787.

Turning to `C[C@H](CS)C(=O)N1CCC[C@H]1C(=O)O` [Captopril], the GFP- is 0.691.

On to `CC1(COc2ccc3c(c2)ncn3-c2ccc3cccc(N4CCC(N)CC4)c3n2)COC1` [Crenolanib], for which the GFP- was found to be 0.948.

With `Cc1cc(Nc2ncnc3ccc(-c4ccc(CNCCS(C)(=O)=O)o4)cc23)ccc1Oc1ccn2ncnc2c1` [HER2-Inhibitor-1], the GFP- worked out at 0.989.

The molecule `CN(C)CCCCC(=O)Nc1ccc(NC(=S)NC(=O)c2ccc(C(C)(C)C)cc2)cc1` [Tenovin-6] displayed a GFP- of 0.854.

`CC(C)Oc1ccc(-c2cnc3c(-c4ccnc5ccccc45)cnn3c2)cc1` had a GFP- of 0.966.

In turn, `Cc1coc2c1C(=O)C(=O)c1c-2ccc2c(C)cccc12` [Tanshinone I] gave a GFP- of 1.03.

The molecule `NCCc1ccc(O)c(O)c1` [Dopamine] yielded a GFP- of 1.02.

Consider `Cc1ccccc1C(=O)Nc1ccc(C(=O)N2CCCC(O)c3cc(Cl)ccc32)c(C)c1` (stereo unspecified) [Tolvaptan], for which the GFP- worked out at 0.996.
